# Data taken from PubChem BioAssay AID624291 (National Center for Advancing Translational Sciences (NCATS), 2012).
# Screen size: about 350,000 compounds; about 220 (0.063%) were called active. Inconclusive results, whose numbers are uncertain, are shown with a selection of clear calls. Calls follow the shape of the dose curve; as a rule, active = well fitted activation curve with a large enough effect; inconclusive = small, poorly fitted or top-dose-only effect; inactive = no such curve, though single readings can be large or run the other way. Potencies beside an inconclusive call are fits to weak or partial responses and may not hold up.
# Experiment: qHTS for Activators of Integrin-Mediated Alleviation for Muscular Dystrophy; also: nearly all actives have a fitted effect of over 60% in size;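 as to activation: 100% = response of the positive control SU9516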
# Details: alpha7betagal myoblasts, beta-gal FDG fluorescence, 48 h; activation: at 38.3 µM (top of the series)
# Method in brief: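 Alpha7betagal+/- myoblasts (passage 13) were plated 16-24 hr, then exposed to compounds (1:260 dilution of DMSO stock) for 48 hours at 37C. After MPER lysis, β-galactosidase reporter activity was read as FDG fluorescence (ex 480/em 540) after 30 minutes.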
# Potency is read from the fitted curve at half-maximal effect.
Compound,Potency,activation
Nc1nc(-c2ccc(Oc3ccccc3)cc2)cs1,"inconclusive: 28.2 µM [activator, partial curve, poor fit]",–
Cn1nccc1NC(=O)Nc1cccc(Br)c1,"inconclusive: 1 µM [activator, full curve, poor fit]",–
COc1cc(OC)c(NC(=O)c2ccc(F)cc2)cc1Cl,"inconclusive: 2.82 µM [activator, full curve, poor fit]",–
NC(=O)c1cccc(N=Cc2cc(Cl)cc(Cl)c2O)c1,–,inactive: 2.49%
O=C(COc1ccc(F)cc1)Nc1ccc2c(c1)OCCO2,"inconclusive: 2.82 µM [activator, single point]",–
CC(=O)c1ccc(NC(=O)CN2CCN(c3ncccn3)CC2)cc1,–,inactive: -17.5%
COc1ccccc1NC(=O)NCCC1=CCCCC1,"inconclusive: 5.01 µM [activator, single point]",–
Cc1cc(-c2ccccc2)c2nncn2n1,–,inactive: 0.825%
CCOc1ccccc1OCC(=O)NCCc1ccc(S(N)(=O)=O)cc1,"inconclusive: 12.6 µM [activator, single point]",–
COc1ccccc1CC(=O)Nc1ccc2[nH]ncc2c1,"inconclusive: 2.82 µM [activator, single point]",–
COc1cc2ccccc2cc1C(=O)N1CCc2ccccc21,–,inactive: -11.6%
Cc1nn(CC(=O)NCCc2cccs2)c(=O)c2nn(-c3ccccc3)c(C)c12,"inconclusive: 28.2 µM [activator, single point]",–
CN(C)c1ccc(/C=N/N2C(=O)c3ccccc3C2=O)cc1,"inconclusive: 11.2 µM [activator, single point]",–
CSc1ncc(C(=O)Nc2ccc(C)cc2C)c(C)n1,"inconclusive: 3.16 µM [activator, single point]",–
CCOC(=O)COc1ccc2c(c1)c(C(C)=O)c(C)n2-c1ccc(OC)cc1,"inconclusive: 3.55 µM [activator, full curve, poor fit]",–
Cn1c(=O)c2c(nc(NCc3ccco3)n2Cc2ccccc2Cl)n(C)c1=O,–,inactive: -43.9%
Cc1ccc(CC(=O)O/N=C(\N)Cc2ccc([N+](=O)[O-])cc2)cc1,–,inactive: 19.1%
CC(=O)c1ccc(-n2nnnc2SCC(=O)NC2CCCCC2)cc1,–,inactive: -20.3%
Cc1ccc(NC(=O)C(OC(=O)c2ccc(O)cc2)c2ccccc2)cc1Cl (configuration not stated),"inconclusive: 28.2 µM [activator, single point]",–
O=S(=O)(c1ccc(Cl)s1)N1CCN(C/C=C/c2ccccc2)CC1,–,inactive: -51.8%
Cc1ccc2c(c1)[nH]c1c(=O)n(CCN3CCCCC3)cnc12,–,inactive: -15.8%
Cc1cc(N2C(=O)c3ccccc3C2=O)n(C)n1,"inconclusive: 5.01 µM [activator, single point]",–
O=C(CN1CCOCC1)Nc1ncc(Cc2ccccc2Cl)s1,–,inactive: -20.2%
COc1ccc(C(=O)N/C(=C\c2ccccc2)C(=O)Nc2cccc(C(=O)O)c2)cc1,"inconclusive: 3.55 µM [activator, single point]",–

Compound,Potency,activation
Nc1ncn(-c2ncc(C(F)(F)F)cc2Cl)n1,"inconclusive: 3.55 µM [activator, single point]",–
O=C(CN(C(=O)CSc1nc2ccccc2o1)c1ccccc1F)NC1CCCCC1,"inconclusive: 5.01 µM [activator, single point]",–
Cc1c(C(=O)Nc2nnc(C(F)(F)F)s2)oc2ccccc12,"inconclusive: 3.16 µM [activator, partial curve, poor fit]",–
CC(C(c1cccs1)c1c(N)n(C)c(=O)n(C)c1=O)[N+](=O)[O-] (configuration not stated),"inconclusive: 1.41 µM [activator, partial curve, poor fit]",–
COc1ccc(Cn2nnnc2C(c2cc3cc(C)ccc3[nH]c2=O)N2CCN(C)CC2)cc1 (configuration not stated),"inconclusive: 17.8 µM [activator, single point]",–
Cc1cc(F)ccc1S(=O)(=O)Nc1ccc(O)c(Sc2ncn[nH]2)c1,"inconclusive: 22.4 µM [activator, single point]",–
CSCC(=O)N1CCCC(CO)(CCCc2ccccc2)C1 (configuration not stated),"inconclusive: 5.01 µM [activator, single point]",–
CCC(=O)Nc1nc(N)n(-c2ccccc2)n1,–,inactive: -18.3%
O=C(Nc1ccc(F)cc1)c1cc(S(=O)(=O)Nc2ccc(F)cc2)cs1,–,inactive: -12.3%
COc1ccc(S(=O)(=O)Nc2ccc(S(=O)(=O)Nc3nccs3)cc2)cc1,active: 12.6 µM,–
CCSc1nsc(NC(=O)Nc2cccc(OC)c2)n1,"inconclusive: 2.24 µM [activator, partial curve, poor fit]",–
CCNc1nc(OC)nc(N2CCC(Cc3ccccc3)CC2)n1,–,inactive: -15.1%
COc1ccc(C2CC(c3ccc(Cl)cc3)Nc3nc(NC(=O)c4ccco4)nn32)cc1 (configuration not stated),–,inactive: 6.68%
CC1=C(C(=O)OCc2ccc3c(c2)OCO3)C(c2ccc(F)cc2)NC(=O)N1 (configuration not stated),"inconclusive: 0.447 µM [activator, full curve, poor fit]",–
O=C(Nc1cccn(Cc2ccccc2)c1=O)NC1CCCCC1,–,inactive: -14.4%
C(=N\NC1=NCCN1)/c1ccncc1,"inconclusive: 5.01 µM [activator, full curve, poor fit]",–
Cc1cc(Br)ccc1NC(=O)C(C)c1ccc([N+](=O)[O-])cc1 (configuration not stated),"inconclusive: 28.2 µM [activator, single point]",–
Cc1ccccc1Nc1n[nH]c(C)c1[N+](=O)[O-],–,inactive: -11.3%
OC1=C(O)c2nc3cc(C(F)(F)F)ccc3nc21,–,inactive: -28%
CC1CCC2(CC1)NC(=O)N(CC(=O)Nc1ccc(C(N)=O)cc1)C2=O (configuration not stated),"inconclusive: 5.01 µM [activator, single point]",–
CC(C)Cc1cc(CN2CCCC(CO)(Cc3cccc(Cl)c3)C2)[nH]n1 (configuration not stated),–,inactive: -62.7%
COc1ccc(S(=O)(=O)N2CCOCC2)cc1NC(=O)CCc1c[nH]c2ccccc12,"inconclusive: 5.01 µM [activator, single point]",–
CC(C)=CC(=O)Nc1nnc(-c2ccc(F)cc2)s1,"inconclusive: 11.2 µM [activator, partial curve, poor fit]",–
COc1ccccc1C(=O)NN(C)C1=NS(=O)(=O)c2ccccc21,"inconclusive: 0.891 µM [activator, full curve, poor fit]",–

Compound,Potency,activation
Cc1cccc(NC(=O)C2(c3cccs3)CCOCC2)c1,"inconclusive: 28.2 µM [activator, single point]",–
Cc1ccc(S(=O)(=O)Nc2nc3ccccc3nc2NCC2CCCO2)cc1C (configuration not stated),"inconclusive: 11.2 µM [activator, single point]",–
COc1ccc(C(C)(C)C)cc1NC(=O)COC(=O)C1=NNC(=O)CC1,"inconclusive: 4.47 µM [activator, single point]",–
O=C(O)c1cc(N2C(=O)C3CCCCC3C2=O)ccc1NCc1cccnc1 (configuration not stated),"inconclusive: 5.01 µM [activator, single point]",–
Cc1cc(NCCO)c2cc(O)ccc2n1,–,inactive: 16.5%
CCOC(=O)[C@@H]1CCNC[C@@H]1c1ccccc1,–,inactive: 12%
O=C(Nc1cc2c3c(c1)CC(=O)N3CCC2)c1ccc(Cl)cc1,–,inactive: 19.5%
CC(C)Sc1nc2ccc(Br)cc2[nH]1,"inconclusive: 4.47 µM [activator, single point]",–
CCC(=O)Nc1ccc(NC(=O)CSc2nnc(-c3ccco3)n2CC)cc1,"inconclusive: 2.24 µM [activator, partial curve, poor fit]",–
O=C(c1ccsc1)N1CCCC(N2CCOCC2)C1 (configuration not stated),"inconclusive: 5.01 µM [activator, single point]",–
COC(=O)c1cc(C(=O)N2CCN(c3ncccn3)CC2)cc([N+](=O)[O-])c1,"inconclusive: 5.01 µM [activator, single point]",–
CCc1cccc(NS(=O)(=O)c2cccc3cccnc23)c1,"inconclusive: 2 µM [activator, full curve, poor fit]",–
CN(C)C(CNC(=O)CSc1nnc(-c2ccco2)o1)c1ccccc1 (configuration not stated),"inconclusive: 2.51 µM [activator, single point]",–
C=CCOc1nc2sc(C)c(C)c2c(=O)n1-c1ccccc1,"inconclusive: 5.01 µM [activator, single point]",–
CCc1noc(C)c1C(=O)OCC(=O)Nc1ccc(F)cc1Cl,"inconclusive: 5.01 µM [activator, single point]",–
COc1ccc(/C=N/Nc2ccc([N+](=O)[O-])cc2)cc1Cn1cc([N+](=O)[O-])cn1,–,inactive: -3.85%
CCOC(=O)c1ccc(S(=O)(=O)NCCN2CCOCC2)cc1,"inconclusive: 5.01 µM [activator, single point]",–
CC(=O)N1CCN(C(=O)c2cc(S(=O)(=O)Nc3ccc(S(C)(=O)=O)cc3)ccc2Cl)CC1,"inconclusive: 11.2 µM [activator, single point]",–
N#Cc1c(N2CCN(C(=O)c3ccco3)CC2)nc(-c2ccccc2)c2c1CCCC2,–,inactive: -27.7%
O=[N+]([O-])c1ccc(/C=N\NS(=O)(=O)c2ccc(F)cc2)o1,–,inactive: -23.1%
CCCCSCCCNC(=O)C1CCC(CNS(=O)(=O)c2ccc(NC(C)=O)cc2)CC1 (configuration not stated),"inconclusive: 2.51 µM [activator, partial curve, poor fit]",–
CC(C)(C)C(=O)Nc1ccc(-c2nnc3n2CCCCC3)cc1,"inconclusive: 12.6 µM [activator, single point]",–
COc1ccc(C2=NS(=O)(=O)N(C)C(C(=O)N3CCc4ccccc4C3)=C2)cc1OC,–,inactive: -14.5%
Cc1sc2ncnc(N3CCC(C(=O)NNC(=O)COc4ccc(Br)cc4)CC3)c2c1C,"inconclusive: 0.501 µM [activator, full curve, poor fit]",–

# One compound at a time (already shown).
# CC(C)(C)C(=O)Nc1ccc(-c2nnc3n2CCCCC3)cc1 in the list: Potency: inconclusive: 12.6 µM [activator, single point]
# CCc1noc(C)c1C(=O)OCC(=O)Nc1ccc(F)cc1Cl in the list: Potency: inconclusive: 5.01 µM [activator, single point]
# Cc1cccc(NC(=O)C2(c3cccs3)CCOCC2)c1 in the list: Potency: inconclusive: 28.2 µM [activator, single point]
# CCCCSCCCNC(=O)C1CCC(CNS(=O)(=O)c2ccc(NC(C)=O)cc2)CC1 (configuration not stated) in the list: Potency: inconclusive: 2.51 µM [activator, partial curve, poor fit]
